Reference: PubChem BioAssay AID1224828 (NIAID, 2016)
Screen: 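Regulators linking TLR4 signalling to p65 nuclear translocation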 (primary screen). Cells: mouse RAW264.7 G9 macrophage reporter cells (GFP-p65, Tnf promoter-mCherry). Knock-down reagent: siRNA pool against mouse genes, 100 nM. Time to read-out: 2 days siRNA transfection, then 40 min LPS before fixation. Challenge: LPS (Salmonella minnesota R595) at 10 ng/ml. Measurement: 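Imaged p65 nuclear translocation ratio, normalised to the plate median, converted to robust z-scores and averaged across two replicates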. Reading the numbers: p65 translocation robust z-score: higher = more nuclear NF-kappaB p65 after LPS than the plate median; nuclear/cytoplasmic p65 ratio: higher = more nuclear NF-kappaB p65. Active means: 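Active if robust z is above 3.3 (negative regulators) or below -1.56, the Tlr4 control median (positive regulators); activity score 50 or more; control wells not called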. Calls: active = hit (p65 shift raised or lowered); inactive = no clear change.
The whole screen tested about 17,000 reagents; below is an unselected part. Of all reagents, 762 (4.5%) got an active call. 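Active calls include both raised and lowered p65 entry, mostly lowered; wells with fewer than 50 cells lack a z-score.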 Raw values are not corrected between plates. Reagents against one gene are numbered here.

Slc22a8 — p65 translocation robust z-score: 0.81; nuclear/cytoplasmic p65 ratio, rep 1: 1.56; nuclear/cytoplasmic p65 ratio, rep 2: 1.31; low cell count flag: enough cells to score; activity call: inactive
Kifc5b (kinesin family member C5B) #1 — nuclear/cytoplasmic p65 ratio, rep 1: 1.59; nuclear/cytoplasmic p65 ratio, rep 2: 1.37; low cell count flag: fewer than 50 cells per well; well left out of scoring; activity call: inactive
Kifc5b (kinesin family member C5B) #2 — p65 translocation robust z-score: 0.12; nuclear/cytoplasmic p65 ratio, rep 1: 1.57; nuclear/cytoplasmic p65 ratio, rep 2: 1.39; low cell count flag: enough cells to score; activity call: inactive
Pira1 (paired-Ig-like receptor A1) — p65 translocation robust z-score: 0.6; nuclear/cytoplasmic p65 ratio, rep 1: 1.5; nuclear/cytoplasmic p65 ratio, rep 2: 1.25; low cell count flag: enough cells to score; activity call: inactive
Acot8 (acyl-CoA thioesterase 8) — nuclear/cytoplasmic p65 ratio, rep 1: 1.25; nuclear/cytoplasmic p65 ratio, rep 2: 1.2; low cell count flag: fewer than 50 cells per well; well left out of scoring; activity call: inactive
Vps13a (vacuolar protein sorting 13A) — p65 translocation robust z-score: -0.08; nuclear/cytoplasmic p65 ratio, rep 1: 1.65; nuclear/cytoplasmic p65 ratio, rep 2: 1.45; low cell count flag: enough cells to score; activity call: inactive
Pcdhb5 (protocadherin beta 5) — p65 translocation robust z-score: 1.92; nuclear/cytoplasmic p65 ratio, rep 1: 1.66; nuclear/cytoplasmic p65 ratio, rep 2: 1.7; low cell count flag: enough cells to score; activity call: inactive
Fmnl1 (formin-like 1) — p65 translocation robust z-score: 0.7; nuclear/cytoplasmic p65 ratio, rep 1: 1.65; nuclear/cytoplasmic p65 ratio, rep 2: 1.6; low cell count flag: enough cells to score; activity call: inactive
Arid3b (AT-rich interaction domain 3B) — p65 translocation robust z-score: -0.3; nuclear/cytoplasmic p65 ratio, rep 1: 1.61; nuclear/cytoplasmic p65 ratio, rep 2: 1.54; low cell count flag: enough cells to score; activity call: inactive
Slc6a13 — p65 translocation robust z-score: 1.96; nuclear/cytoplasmic p65 ratio, rep 1: 1.66; nuclear/cytoplasmic p65 ratio, rep 2: 1.28; low cell count flag: enough cells to score; activity call: inactive
Senp7 (SUMO1/sentrin specific peptidase 7) — p65 translocation robust z-score: 2.09; nuclear/cytoplasmic p65 ratio, rep 1: 1.44; nuclear/cytoplasmic p65 ratio, rep 2: 1.5; low cell count flag: enough cells to score; activity call: inactive
Fgf13 (fibroblast growth factor 13) — p65 translocation robust z-score: -0.1; nuclear/cytoplasmic p65 ratio, rep 1: 1.36; nuclear/cytoplasmic p65 ratio, rep 2: 1.41; low cell count flag: enough cells to score; activity call: inactive

Ordered by “nuclear/cytoplasmic p65 ratio, rep 2” (ascending): 2 of the entries above
Fmnl1 (formin-like 1) — p65 translocation robust z-score: 0.7; nuclear/cytoplasmic p65 ratio, rep 1: 1.65; nuclear/cytoplasmic p65 ratio, rep 2: 1.6; low cell count flag: enough cells to score; activity call: inactive
Pcdhb5 (protocadherin beta 5) — p65 translocation robust z-score: 1.92; nuclear/cytoplasmic p65 ratio, rep 1: 1.66; nuclear/cytoplasmic p65 ratio, rep 2: 1.7; low cell count flag: enough cells to score; activity call: inactive
